This note sets out measurements from the supplement of paper PMC5355238.

Values joined by “and” are separate entries in the source; they are usually repeats but may differ in a detail not shown here. Equal entries are not always repeated. Structures can show the parent of a compound that is named as a salt. Some of the results follow. Most entries show no effect beyond the scatter of the controls.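 Reh is a human leukemia cell line; the read-out is the median γH2AX antibody signal in S-phase cells by flow cytometry, with the score counting standard deviations from the median difference of each paired set of plates. Scores above 2.5 were called candidate hits, while scores below -2 mark compounds that lowered the MK1775-induced damage.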

For the assay, the system named is Reh. Put plainly: Z' of S-phase gammaH2AX difference (drug + MK1775 minus drug alone) (Z-score); higher = stronger synergistic S-phase DNA damage with MK1775. The note with it: MK1775 concentration 400 nM; first compound 10 µM; 4 h.
Consider `CCc1cccc(N(C)C(=N)Nc2cccc3ccccc23)c1` + C=CCn1c(=O)c2cnc(Nc3ccc(N4CCN(C)CC4)cc3)nc2n1-c1cccc(C(C)(C)O)n1 [MK1775], for which the “Z' of S-phase gammaH2AX difference (Z-score)” value was inactive: -0.174.

As for `Nc1nc(F)nc2c1ncn2[C@@H]1O[C@H](CO)[C@@H](O)[C@@H]1O` [Fludarabine (Fludara)] + C=CCn1c(=O)c2cnc(Nc3ccc(N4CCN(C)CC4)cc3)nc2n1-c1cccc(C(C)(C)O)n1 [MK1775], the “Z' of S-phase gammaH2AX difference (Z-score)” value was active: 2.7.

With `O=C(NCCS(=O)(=O)c1ccc(C(F)(F)F)cn1)c1ccc(Cl)cc1` + C=CCn1c(=O)c2cnc(Nc3ccc(N4CCN(C)CC4)cc3)nc2n1-c1cccc(C(C)(C)O)n1 [MK1775], the “Z' of S-phase gammaH2AX difference (Z-score)” value is inactive: 0.36.

Take `CC(C)CC(=O)Nc1n[nH]c2c1CN(C(=O)C1CCN(C)CC1)C2(C)C` + C=CCn1c(=O)c2cnc(Nc3ccc(N4CCN(C)CC4)cc3)nc2n1-c1cccc(C(C)(C)O)n1 [MK1775]: the “Z' of S-phase gammaH2AX difference (Z-score)” value was inactive: -0.979.

`CC(N)=O` [Acetamide] + C=CCn1c(=O)c2cnc(Nc3ccc(N4CCN(C)CC4)cc3)nc2n1-c1cccc(C(C)(C)O)n1 [MK1775]: the “Z' of S-phase gammaH2AX difference (Z-score)” value was inactive: -0.398.

Consider `CN1CC[C@H](c2c(O)cc(O)c3c(=O)cc(-c4ccccc4Cl)oc23)[C@H](O)C1` [Flavopiridol hydrochloride] + C=CCn1c(=O)c2cnc(Nc3ccc(N4CCN(C)CC4)cc3)nc2n1-c1cccc(C(C)(C)O)n1 [MK1775], for which the “Z' of S-phase gammaH2AX difference (Z-score)” value is inactive: -1.29.

For the compound `Nc1nc(Cl)nc2c1ncn2[C@@H]1O[C@H](CO)[C@@H](O)[C@@H]1F` [Clofarabine] + C=CCn1c(=O)c2cnc(Nc3ccc(N4CCN(C)CC4)cc3)nc2n1-c1cccc(C(C)(C)O)n1 [MK1775], the “Z' of S-phase gammaH2AX difference (Z-score)” value was inactive: 0.684.

As for `O=C1CN2Cc3c(ccc(Cl)c3Cl)N=C2N1` [Anagrelide] + C=CCn1c(=O)c2cnc(Nc3ccc(N4CCN(C)CC4)cc3)nc2n1-c1cccc(C(C)(C)O)n1 [MK1775], the “Z' of S-phase gammaH2AX difference (Z-score)” value is inactive: -0.0362.

Turning to `O=C1CN2Cc3c(ccc(Cl)c3Cl)N=C2N1` [Anagrelide hydrochloride] + C=CCn1c(=O)c2cnc(Nc3ccc(N4CCN(C)CC4)cc3)nc2n1-c1cccc(C(C)(C)O)n1 [MK1775], the “Z' of S-phase gammaH2AX difference (Z-score)” value was inactive: 0.57.

For `CN(C)Cc1c(C(=O)NCCOc2ccc(C(=O)NO)cc2)oc2ccccc12` + C=CCn1c(=O)c2cnc(Nc3ccc(N4CCN(C)CC4)cc3)nc2n1-c1cccc(C(C)(C)O)n1 [MK1775], the “Z' of S-phase gammaH2AX difference (Z-score)” value was inactive: -0.0274.

Consider `N=C(N)SCCc1cccc(CCSC(=N)N)c1` [1,3-PBIT dihydrobromide] + C=CCn1c(=O)c2cnc(Nc3ccc(N4CCN(C)CC4)cc3)nc2n1-c1cccc(C(C)(C)O)n1 [MK1775], for which the “Z' of S-phase gammaH2AX difference (Z-score)” value is inactive: 1.08.

For the compound `O=c1cc(-c2ccc(O)cc2)oc2cc(O)cc(O)c12` [Apigenin] + C=CCn1c(=O)c2cnc(Nc3ccc(N4CCN(C)CC4)cc3)nc2n1-c1cccc(C(C)(C)O)n1 [MK1775], the “Z' of S-phase gammaH2AX difference (Z-score)” value was inactive: -1.03.

Take `C[C@@H](N)[C@H]1CC[C@H](C(=O)Nc2ccncc2)CC1` + C=CCn1c(=O)c2cnc(Nc3ccc(N4CCN(C)CC4)cc3)nc2n1-c1cccc(C(C)(C)O)n1 [MK1775]: the “Z' of S-phase gammaH2AX difference (Z-score)” value was inactive: 0.0806 and inactive: 0.371.

Turning to `CN(C)CCN(Cc1cccs1)c1ccccn1` [Methapyrilene hydrochloride] + C=CCn1c(=O)c2cnc(Nc3ccc(N4CCN(C)CC4)cc3)nc2n1-c1cccc(C(C)(C)O)n1 [MK1775], the “Z' of S-phase gammaH2AX difference (Z-score)” value is inactive: -0.306.

Consider `N=C1Sc2ccccc2C2=NCCCN12` + C=CCn1c(=O)c2cnc(Nc3ccc(N4CCN(C)CC4)cc3)nc2n1-c1cccc(C(C)(C)O)n1 [MK1775], for which the “Z' of S-phase gammaH2AX difference (Z-score)” value is inactive: -0.218.

For the compound `NC(=O)N1c2ccccc2C=Cc2ccccc21` [Carbamazepine] + C=CCn1c(=O)c2cnc(Nc3ccc(N4CCN(C)CC4)cc3)nc2n1-c1cccc(C(C)(C)O)n1 [MK1775], the “Z' of S-phase gammaH2AX difference (Z-score)” value was inactive: -0.524.

As to `COc1cc2nc(N3CCN(C(=O)c4ccco4)CC3)nc(N)c2cc1OC` [Prazosin hydrochloride] + C=CCn1c(=O)c2cnc(Nc3ccc(N4CCN(C)CC4)cc3)nc2n1-c1cccc(C(C)(C)O)n1 [MK1775], the “Z' of S-phase gammaH2AX difference (Z-score)” value is inactive: 0.15.

For `NCCS(=O)(=O)O` [Taurine] + C=CCn1c(=O)c2cnc(Nc3ccc(N4CCN(C)CC4)cc3)nc2n1-c1cccc(C(C)(C)O)n1 [MK1775], the “Z' of S-phase gammaH2AX difference (Z-score)” value is inactive: -0.00186.

In the case of `N#CC(C#N)=C(N)/C(C#N)=C/c1ccc(O)cc1` [Tyrphostin AG 112] + C=CCn1c(=O)c2cnc(Nc3ccc(N4CCN(C)CC4)cc3)nc2n1-c1cccc(C(C)(C)O)n1 [MK1775], the “Z' of S-phase gammaH2AX difference (Z-score)” value is inactive: -0.337.

Take `COc1nc(C)nc(Cl)c1NC1=NCCN1` [Moxonidine hydrochloride] + C=CCn1c(=O)c2cnc(Nc3ccc(N4CCN(C)CC4)cc3)nc2n1-c1cccc(C(C)(C)O)n1 [MK1775]: the “Z' of S-phase gammaH2AX difference (Z-score)” value was inactive: 0.422.

Turning to `O=c1c(O)c(-c2cc(O)c(O)c(O)c2)oc2cc(O)cc(O)c12` [Myricetin] + C=CCn1c(=O)c2cnc(Nc3ccc(N4CCN(C)CC4)cc3)nc2n1-c1cccc(C(C)(C)O)n1 [MK1775], the “Z' of S-phase gammaH2AX difference (Z-score)” value was inactive: -0.0534.

As for `C#CCN(C)Cc1ccccc1` [Pargyline hydrochloride] + C=CCn1c(=O)c2cnc(Nc3ccc(N4CCN(C)CC4)cc3)nc2n1-c1cccc(C(C)(C)O)n1 [MK1775], the “Z' of S-phase gammaH2AX difference (Z-score)” value was inactive: -0.209.

With `O=c1[nH]c2ccccc2c2ccccc12` [6(5H)-Phenanthridinone] + C=CCn1c(=O)c2cnc(Nc3ccc(N4CCN(C)CC4)cc3)nc2n1-c1cccc(C(C)(C)O)n1 [MK1775], the “Z' of S-phase gammaH2AX difference (Z-score)” value was inactive: 0.412.

`Cc1cccc(/C=C/c2ccccc2)n1` + C=CCn1c(=O)c2cnc(Nc3ccc(N4CCN(C)CC4)cc3)nc2n1-c1cccc(C(C)(C)O)n1 [MK1775]: the “Z' of S-phase gammaH2AX difference (Z-score)” value is inactive: 0.569.

Regarding `CCn1cc(C(=O)O)c(=O)c2ccc(C)nc21` [Nalidixic acid sodium] + C=CCn1c(=O)c2cnc(Nc3ccc(N4CCN(C)CC4)cc3)nc2n1-c1cccc(C(C)(C)O)n1 [MK1775], the “Z' of S-phase gammaH2AX difference (Z-score)” value was inactive: 0.611.

For the compound `CCN(CC)CCNC(=O)c1cc(S(C)(=O)=O)ccc1OC` [Tiapride hydrochloride] + C=CCn1c(=O)c2cnc(Nc3ccc(N4CCN(C)CC4)cc3)nc2n1-c1cccc(C(C)(C)O)n1 [MK1775], the “Z' of S-phase gammaH2AX difference (Z-score)” value is inactive: 0.0131.

As to `O=C(CCCN1CC=C(n2c(=O)[nH]c3ccccc32)CC1)c1ccc(F)cc1` [Droperidol] + C=CCn1c(=O)c2cnc(Nc3ccc(N4CCN(C)CC4)cc3)nc2n1-c1cccc(C(C)(C)O)n1 [MK1775], the “Z' of S-phase gammaH2AX difference (Z-score)” value is inactive: 1.44.

Take `O=C(NCCNCC(O)COc1ccc(O)cc1)N1CCOCC1` (stereo not drawn) [Xamoterol hemifumarate] + C=CCn1c(=O)c2cnc(Nc3ccc(N4CCN(C)CC4)cc3)nc2n1-c1cccc(C(C)(C)O)n1 [MK1775]: the “Z' of S-phase gammaH2AX difference (Z-score)” value was inactive: -0.442.

Turning to `N=C(N)c1ccccc1` [Benzamidine hydrochloride] + C=CCn1c(=O)c2cnc(Nc3ccc(N4CCN(C)CC4)cc3)nc2n1-c1cccc(C(C)(C)O)n1 [MK1775], the “Z' of S-phase gammaH2AX difference (Z-score)” value is inactive: 0.107.

On to `CCN(Cc1ccncc1)C(=O)C(CO)c1ccccc1` (stereo not drawn) [Tropicamide] + C=CCn1c(=O)c2cnc(Nc3ccc(N4CCN(C)CC4)cc3)nc2n1-c1cccc(C(C)(C)O)n1 [MK1775], for which the “Z' of S-phase gammaH2AX difference (Z-score)” value was inactive: 0.11.

With `CCN(CC)CC#CCOC(=O)C(O)(c1ccccc1)C1CCCCC1` (stereo not drawn) [Oxybutynin Chloride] + C=CCn1c(=O)c2cnc(Nc3ccc(N4CCN(C)CC4)cc3)nc2n1-c1cccc(C(C)(C)O)n1 [MK1775], the “Z' of S-phase gammaH2AX difference (Z-score)” value is inactive: 0.519.

As to `COc1ccc(C(=O)NCc2cccnc2)cc1C(=O)NCc1cccnc1` [Picotamide] + C=CCn1c(=O)c2cnc(Nc3ccc(N4CCN(C)CC4)cc3)nc2n1-c1cccc(C(C)(C)O)n1 [MK1775], the “Z' of S-phase gammaH2AX difference (Z-score)” value was inactive: -0.228.

With `C=CC[C@@H]1/C=C(\C)C[C@H](C)C[C@H](OC)[C@H]2O[C@@](O)(C(=O)C(=O)N3CCCC[C@H]3C(=O)O[C@H](/C(C)=C/[C@@H]3CC[C@@H](O)[C@H](OC)C3)[C@H](C)[C@@H](O)CC1=O)[C@H](C)C[C@@H]2OC` [FK-506 (Tacrolimus)] + C=CCn1c(=O)c2cnc(Nc3ccc(N4CCN(C)CC4)cc3)nc2n1-c1cccc(C(C)(C)O)n1 [MK1775], the “Z' of S-phase gammaH2AX difference (Z-score)” value is inactive: 0.000739.

Consider `O=Nc1c(-c2c(O)[nH]c3ccccc23)[nH]c2ccccc12` [Indirubin-3'-oxime] + C=CCn1c(=O)c2cnc(Nc3ccc(N4CCN(C)CC4)cc3)nc2n1-c1cccc(C(C)(C)O)n1 [MK1775], for which the “Z' of S-phase gammaH2AX difference (Z-score)” value is inactive: -2.51.

Take `COc1ccc2[nH]cc(CCNC(C)=O)c2c1` [Melatonin] + C=CCn1c(=O)c2cnc(Nc3ccc(N4CCN(C)CC4)cc3)nc2n1-c1cccc(C(C)(C)O)n1 [MK1775]: the “Z' of S-phase gammaH2AX difference (Z-score)” value was inactive: 0.213.

For the compound `CCCCC/C=C\C[C@@H](O)/C=C/c1cccc(C[C@@H](O)CCCCO)n1` + C=CCn1c(=O)c2cnc(Nc3ccc(N4CCN(C)CC4)cc3)nc2n1-c1cccc(C(C)(C)O)n1 [MK1775], the “Z' of S-phase gammaH2AX difference (Z-score)” value was inactive: -1.32.

As for `COc1cc(OC)c(C=C2C(=O)Nc3ccccc32)c(OC)c1` + C=CCn1c(=O)c2cnc(Nc3ccc(N4CCN(C)CC4)cc3)nc2n1-c1cccc(C(C)(C)O)n1 [MK1775], the “Z' of S-phase gammaH2AX difference (Z-score)” value was inactive: 0.0776.

With `CN(NC(=O)CC(=O)NN(C)C(=S)c1ccccc1)C(=S)c1ccccc1` [Elesclomol] + C=CCn1c(=O)c2cnc(Nc3ccc(N4CCN(C)CC4)cc3)nc2n1-c1cccc(C(C)(C)O)n1 [MK1775], the “Z' of S-phase gammaH2AX difference (Z-score)” value is inactive: -3.84.
